# Screen size: about 360,000 compounds; about 17,000 (4.7%) were called active. These results got no clear call from the source, so the numbers are uncertain. Rule as the data show it: active = activity change below about -50%; inconclusive = mostly about -30% to -49%; inactive = weaker than that.
# Assay: qHTS for Inhibitors of Inflammasome Signaling: IL-1-beta AlphaLISA Primary Screen
# Details: THP-1 LPS/ATP IL-1B secretion, 16 h; at 57.5 µM, active compounds read low
# From the text: Inflammasomes are a set of intracellular multi-protein complexes that enable autocatalytic activation of inflammatory caspases and drive the innate immune response to counter harmful agents. […] A qHTS assay, based on AlphaLISA technology, was developed to screen the Molecular Libraries Small Molecule Repository (MLSMR) to look for novel inflammasome inhibitors. The assay detects IL-1B using AlphaLISA anti-IL-1B acceptor and donor beads. A decreased emission signal, indicating reduced IL-1B secretion, is the desired outcome for this assay. NIH Chemical Genomics Center [NCGC] NIH Molecular Libraries Probe Centers Network [MLPCN] MLPCN Grant: MH095513 Assay Provider: Shyam Biswal Ph.D., Johns Hopkins University Immunity. 2012 Jul 27;37(1):85-95. PMID: 22819042 [2] Curr Pharm Des. 2012;18(16):2320-8. PMID: 22390695
# Three microliters containing 3000 THP-1 cells were dispensed into the wells of solid, white, tissue culture treated Greiner 1,536-well plates. Library compounds and positive control, Glyburide, were pin-transferred (23 nL) by a Kalypsys pin-tool equipped with a 1,536-pin array, resulting in final compound concentration ranges of 2.5 nM to 57.5 uM. After 1 hr of cell culture incubation (37 °C, 5% CO2), 1 microL of 1 microg/mL lipopolysaccharide (250 ng/mL, final) and 5 mM ATP (1.25 mM, final) were added to stimulate the cells. After 16 hr of cell culture incubation with the compounds, 1.5 uL of anti-IL-1B acceptor beads (6 ug/mL, final) and biotinylated antibody (0.6 nM, final) were added to the plate, followed by a 1 hr incubation at ambient temperature. To detect the secreted IL-1B, 1.5 uL of AlphaLISA SA-Donor beads (24 ug/mL, final) were added, followed by 30 min of incubation in the dark at ambient temperature. The AlphaLISA signal was read by a PerkinElmer EnVision plate reader with an ultrasensitive luminescence detector and 1536 Plate HTS AlphaScreen aperture (excitation of 680nm and emission of 615nm).
# % is scaled to controls: 0 for no effect and ±100 for the full control effect.
row,Structure (SMILES),activity change
1,CP(=O)(Nc1ccccc1F)Oc1ccccc1 (stereo not drawn),inconclusive
2,CCN(CC)CCCOC(=O)C(O)(c1ccccc1)C1CCCCC1 (stereo not drawn),inconclusive: -36.6%
3,COc1ccc(OP(C)(=O)Nc2ccccn2)cc1 (stereo not drawn),inconclusive
4,CP(=O)(Nc1ccc(Cl)cc1)Oc1ccc(F)cc1 (stereo not drawn),inconclusive
5,CCc1ccc(OP(C)(=O)N2CCN(c3ccc([N+](=O)[O-])cc3)CC2)cc1 (stereo not drawn),inconclusive
6,O=[N+]([O-])c1cc([N+](=O)[O-])c(Nc2cccnc2)c([N+](=O)[O-])c1,inconclusive
7,COc1ccccc1OP(C)(=O)Nc1cccc(Br)c1 (stereo not drawn),inconclusive
8,CCCOc1ccc(NP(C)(=O)Oc2ccc(Cl)cc2)cc1 (stereo not drawn),inconclusive

# From PubChem BioAssay AID743279 (National Center for Advancing Translational Sciences (NCATS), 2014)
